# Laboratory results taken from PubChem BioAssay AID1347426 (Functional Genomics Laboratory (NCATS/FGL), 2020).
# In all, about 31,000 sequences went through this assay and about 1,400 (4.5%) were called active.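 How the source made its calls: active means median seed-adjusted z-score above 1 or below -1; inactive means the rest.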 Some of the results follow.
# Assay: Novel Modifiers of Survival Motor Neuron (SMN) Protein: Gene Identification via Genome-wide siRNA Screen;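 further: luminescence tracks full-length SMN protein made from the SMN2 reporter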
# Settings: HEK293T SMN2-luciferase reporter, siRNA knockdown, 72 h; actives lie on both sides
# Summary of the method: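 Steps: spot 1 pmol siRNA, add Lipofectamine RNAiMax in serum-free DMEM, seed HEK293T SMN2–luciferase reporter cells; incubate 72 h at 37 °C; add ONE-Glo; normalize luminescence to control siRNA, log10, MAD. Candidates: |MAD| > 1.0.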
row,Sequence,median seed-adjusted z-score
1,CCAAAUUCCGCUCUCAUGATT against SFRS9,inactive: -0.144
2,GGAAUUGUGGGUGCAUUAATT against WASL,inactive: 0.143
3,CAGUCCUUGUUAACCAACATT against ZNF514,inactive: 0.125
4,AGUCAAUAUUGAGGCAAGATT against PCDHB13,inactive: -0.293
5,GCGACGAACUGAGCUGUAATT against FKBP2,inactive: -0.0466
6,CAGCUAAUGUUGGAUUGUUTT against EPHA7,inactive: -0.172
7,GAUGCGCACUCAGUCCUUATT against MLLT4,inactive: -0.0762
8,ACACCAAGCGGGUCAUUCATT against MYH7B,inactive: -0.0322
9,AGACCUUUCCAUUCGCCUUTT against PITX3,inactive: 0
10,UGGUAGCAUUAUUAUCCAATT against SMA4,inactive: 0.291
11,GGCCUAUGCUUACUCGGAUTT against ZNF509,inactive: 0
12,GGAUUUGUGAGAUAUGAGATT against PABPC5,inactive: -0.428
13,GAAUCUUGCUGACUAUACATT against PASK,inactive: 0
14,CGUGUAGAGAGGAACAAGATT against PPEF1,inactive: -0.58
15,CCAUCGAUGAGAUCCAGAATT against DDB1,inactive: 0.231
16,CUACCAACGUGACAGGUGATT against FBP1,inactive: -0.221
17,GGAAGAUGGAGACUAUCAATT against MIPEP,inactive: -0.169
18,GCCCGUCUAUGACAAGAAATT against RELB,active: 1.16
19,CAAGAAUGAUGCCUACUUUTT against CA11,inactive: -0.0741
20,GAUUGUCCUUUGCCUAAAATT against SLC16A9,inactive: 0.125
21,AGUACAGGAUGCAUUCUUATT against DMRT1,inactive: 0
22,GAAGCUGACUAAUGCAUUATT against DTNA,inactive: 0
23,GAAGCAUCUCCAAAACGUATT against ERAP1,inactive: -0.0666

row,Sequence,median seed-adjusted z-score
1,CCUUUACAAAUAACGGAUATT against NHLRC2,inactive: 0.548
2,GCAUCAUCGAGAACCGCAATT against SRL,inactive: 0.148
3,CAAUCGUCUGUACUAUGAATT against PHKA1,inactive: 0.286
4,CGGCUUACACCAACACGCATT against HOXB2,inactive: 0.271
5,ACCCUGGAGUUGUCAGGGATT against CLDN9,inactive: 0.398
6,GAGUUGUUGUUAGAUCGAATT against HELLS,inactive: 0.192
7,GGUCGGAUCUUUGAGCUGATT against TNRC4,inactive: 0.801
8,GGACUUCAAACGCAAGUUUTT against ABHD4,inactive: -0.054
9,GCCUUAAAAAGCACCAAAATT against ZNF16,inactive: 0
10,CCAUUGGACGGGUACUUCATT against MED12,inactive: -0.896
11,GCUCAUCUCCGGCAAAAUATT against PNPLA3,inactive: -0.0642
12,GGGCUUUUAUUGCGACCAATT against NCOA3,inactive: -0.594
13,GGCAGAAUCUGUUUACGAATT against CADM1,inactive: 0.419
14,GGUUGUCAGUCUUUAGUAATT against ZNF208,inactive: 0.265
15,GAUGAGUGCUGCUUCCGGATT against IGF1,inactive: 0.559
16,GCACCAUCCUCACACCUCUTT against TWIST1,inactive: -0.159
17,GGCUUCUCGUCGAGCACUATT against ESPN,inactive: 0
18,AGAAAUGGGUGGAGACAUUTT against CYP4A11,inactive: -0.762
19,GCUGGAUGGUAUUCGAAAATT against UQCRB,inactive: 0.348
20,CAACAGCAAUUACACCGAUTT against TMPRSS13,inactive: 0.0584
21,AGGAUAUGCUGUCAAUGUATT against NSDHL,inactive: 0.716
22,GGAGAAGGAGUAUUGACUATT against PLEKHF2,inactive: 0.0967
23,GGUCAUUCAGUAUAACGAATT against ZFHX4,inactive: 0.0868

# 20 entries from above, set out differently:
row	Sequence	median seed-adjusted z-score
4	CGGCUUACACCAACACGCATT against HOXB2	inactive: 0.271
5	ACCCUGGAGUUGUCAGGGATT against CLDN9	inactive: 0.398
6	GAGUUGUUGUUAGAUCGAATT against HELLS	inactive: 0.192
7	GGUCGGAUCUUUGAGCUGATT against TNRC4	inactive: 0.801
8	GGACUUCAAACGCAAGUUUTT against ABHD4	inactive: -0.054
9	GCCUUAAAAAGCACCAAAATT against ZNF16	inactive: 0
10	CCAUUGGACGGGUACUUCATT against MED12	inactive: -0.896
11	GCUCAUCUCCGGCAAAAUATT against PNPLA3	inactive: -0.0642
12	GGGCUUUUAUUGCGACCAATT against NCOA3	inactive: -0.594
13	GGCAGAAUCUGUUUACGAATT against CADM1	inactive: 0.419
14	GGUUGUCAGUCUUUAGUAATT against ZNF208	inactive: 0.265
15	GAUGAGUGCUGCUUCCGGATT against IGF1	inactive: 0.559
16	GCACCAUCCUCACACCUCUTT against TWIST1	inactive: -0.159
17	GGCUUCUCGUCGAGCACUATT against ESPN	inactive: 0
18	AGAAAUGGGUGGAGACAUUTT against CYP4A11	inactive: -0.762
19	GCUGGAUGGUAUUCGAAAATT against UQCRB	inactive: 0.348
20	CAACAGCAAUUACACCGAUTT against TMPRSS13	inactive: 0.0584
21	AGGAUAUGCUGUCAAUGUATT against NSDHL	inactive: 0.716
22	GGAGAAGGAGUAUUGACUATT against PLEKHF2	inactive: 0.0967
23	GGUCAUUCAGUAUAACGAATT against ZFHX4	inactive: 0.0868

# Later entries:

row,Sequence,median seed-adjusted z-score
1,CCGCAGCUGUCUUCACAAATT against ALDH2,inactive: -0.216
2,UGCUGUUGGUCUCAGCUGATT against TNFRSF10B,inactive: 0.064
3,GCCGAGCAGUUACAAGACATT against EXOSC8,inactive: 0.203
4,GGCAAUUGAUCGACCAGGATT against THSD4,inactive: 0.0657
5,GGGUGUUUGGGAAUAAGAATT against COASY,inactive: 0
6,GCACUUACAACGACAUAUUTT against ZNF644,inactive: 0.389
7,CCUGCUGAGUUCAAACAGATT against AP2A2,inactive: 0.158
8,GAAGGAGGGUGACCUGAUATT against LMNA,inactive: -0.409
9,GAGGGACCAUAGUAGAUCATT against CPSF6,active: -2.38
10,GAUACGUGGUUCUAGAUGATT against LAMA4,inactive: 0.691
11,GCAUCCUGACGGUUGAUGUTT against GALR2,inactive: -0.0832
12,CAUGUAAACUUGCUGUUUUTT against CKS1B,inactive: 0.00314
13,GGCUUAGGGUAUUUCUACATT against SLC37A1,inactive: -0.102
14,GGAGUUCGUCUGUCAGUAUTT against ZBTB38,inactive: 0.448
15,CCAGCUCUGUCACCGUUGUTT against PTPRCAP,inactive: 0.372
16,GGCUUCAGCGUGUCCCAUATT against GUK1,inactive: -0.339
17,GAGCCACACUUUCAAGUAATT against CRIP1,inactive: -0.622
18,CCAUGAGUGUUGAUCGAUATT against OPRM1,inactive: -0.00476
19,GCAUCGAUCCGGUUCAAGATT against TTLL9,inactive: 0.0534
20,GGAGUUGUCCAGUACCCAATT against AGXT2,inactive: 0.17
21,GGGUUUUCAUUCAGAUGAATT against MLL4,inactive: -0.259
22,GAGACAGCCUGAUGGAGAATT against STC1,active: -1.36
23,AGCCUAUGGUCGGAACGAATT against APOBEC3F,inactive: -0.315
